Measured values taken from patent publication US20150265642A1, “NAD BIOSYNTHESIS AND PRECURSORS IN THE PREVENTION AND TREATMENT OF INFLAMMATION” (PRESIDENT AND FELLOWS OF HARVARD COLLEGE, priority 2013, published 2015).
For at least one compound, name, drawing or mass did not settle the structure.

System: PGC-1α/β KO myotubes
Test: Gene expression (qPCR) and HIF-1α immunoblot in PGC-1α/β KO myotubes
Type: cell-based, mice
Settings: PGC-1α/β KO cells
Protocol: Primary myoblasts cells were isolated from WT, SIRT1 KO (Price et al., 2012) and PGC-1α/β KO (Zechner et al., 2010) mice as previously described (Price et al., 2012). WT and PGC-1α/β KO primary myoblasts were plated and allowed to differentiate into myotubes by replacing the media with low glucose DMEM supplemented with 2% horse serum (Sigma-Aldrich) for 4 days. After the differentiation the cells were infected with empty vector or flag-SIRT1 adenovirus as described before (Gerhart-Hines et al., 2007). Media was replaced with fresh DMEM supplemented with 2% horse serum (Sigma-Aldrich) for an additional 48 hr and, after that the cells were harvested for the different assays as described. […]
RNA from skeletal muscle tissue and C2C12 cells were extracted with RNeasy mini kit (Qiagen) according to the instructions and quantified using the NanoDrop 1000 spectrophotometer (Thermo Scientific). cDNA was synthesized with the iSCRIP cDNA synthesis kit (BioRad) using 600 ng of RNA. Quantitative RT-PCR reactions were performed using 1 μM of primers and LightCycler® 480 SYBR Green Master (Roche) on an LightCycler® 480 detection system (Roche). […]

With CC(=O)C(=O)O [pyruvate] the mitochondrial-encoded genes (10 mM pyruvate, 24 h) was “increased mitochondrial-encoded genes” and the “NAD+ levels” value (supplementation with pyruvate) was “increasing NAD^+ levels”.
